Results deposited as PubChem BioAssay AID652272 (Drosophila RNAi Screening Center, 2013).
Test: 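Finding fly genes that regulate Hedgehog signal transduction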 (primary screen). System: Drosophila clone 8 (Cl8) cells. Knock-down reagent: long dsRNA against Drosophila genes. Measured: 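Firefly light from a Hedgehog-responsive ptc promoter reporter and Renilla reference light, both read on a plate reader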. Direction: firefly Hh reporter signal: higher = more ptc reporter light; Renilla reference signal: higher = more Renilla control light. Rule for the call: 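Hit when the z-score averaged over two replicates is under -2 or over +3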. Calls: active = hit: reporter lowered or raised; inactive = not a hit.
In all, the deposit lists about 21,000 reagents; below is a random part of those with a known target gene and a result. Of all reagents, 503 (2.4%) got an active call. 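Raw plate light values, not normalised; calls rest on replicate z-scores that were not deposited; hits include reporter decreases as well as increases.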 Names joined by + are all predicted targets of the reagent. The record does not give: the amount of reagent, the time to read-out.

no.	Gene	DRSC id	firefly Hh reporter signal, replicate 1	firefly Hh reporter signal, replicate 2	firefly Hh reporter signal, replicate 3	Renilla reference signal, replicate 1	Renilla reference signal, replicate 2	activity call
1	Adgf-A	DRSC10566	82848	56236		3437	2353	inactive
2	lncRNA:CR43451	DRSC13352	54976	2.22e5		12027	5565	inactive
3	CG6083	DRSC10580	39396	39636	75627	4509	5660	inactive
4	CG6628	DRSC10679	51424	45840	45412	4320	2620	inactive
5	pck	DRSC18565	85115	74621		1690	1964	inactive
6	Larp4B	DRSC08192	50461	22299		1840	1642	inactive
7	CG31200	DRSC15285	5.12e5	76802		27309	5419	inactive
8	CG14511	DRSC14863	67489	92308		1704	2384	inactive
9	CG4004	DRSC19791	98811	80128		2125	2464	inactive
10	CG4004	DRSC19882	75322	2.40e5		2816	9424	inactive
11	Sdc	DRSC04654	55328	64002		1810	5708	inactive
12	CG15536	DRSC15072	1.03e5	7.80e5	1.65e5	1560	5777	inactive
13	ds	DRSC00815	86210	66737		2112	1555	inactive
14	mtSSB	DRSC17005	86409	99549		2363	2838	inactive
15	CG6429	DRSC06986	69925	76051		2107	5602	inactive
16	CG13008	DRSC19527	53168	1.77e5		1600	7270	inactive
17	CG13008	DRSC19528	47648	2.27e5		1404	9222	inactive
18	Cln7	DRSC11005	1.15e5	64272		4968	2935	inactive
19	CG12289	DRSC09874	54322	51985	55248	6209	3732	inactive
20	dbr	DRSC00274	89988	61706		3720	3014	inactive
21	Grip128	DRSC20167	1.28e5	88504		3014	2082	inactive
22	NdufV3	DRSC19423	85142	2.54e5		1821	9888	inactive
23	CCHa1-R	DRSC06456	88560	58284		2423	4023	inactive
24	CCHa1-R	DRSC06715	86377	43869		2565	3152	inactive
25	S	DRSC00785	1.19e5	92704		2749	2043	inactive
26	Rpi	DRSC04583	96384	71568		2272	7654	inactive
27	CG9114	DRSC20155	1.13e5	1.91e5		3622	8072	inactive
28	Egfrap	DRSC09963	55804	39345		4896	2938	inactive
29	Egfrap	DRSC09964	45197	39001		4976	3171	inactive
30	Cdep	DRSC12028	2.48e5			5476		inactive
31	Cdep	DRSC12220	1.66e5	90864		5697	3648	inactive
32	Cdep	DRSC12291	74039	91153		2809	1352	inactive
33	Uxt	DRSC01962	91232	64005		2765	5577	inactive
34	Golgin104	DRSC10459	66243	55254		2467	1399	inactive
35	CG33752	DRSC05351	1.80e5	3.01e5		4386	12898	inactive
36	CG7506	DRSC10860	1.87e5	1.24e5		7623	4689	inactive
37	CG41520	DRSC21102	5.79e5	2.65e5		34496	6467	inactive
38	CG41520	DRSC21103	70336	2.37e5		2240	10285	inactive
39	CG4716	DRSC06884	1.24e5	93111		4315	3251	inactive
40	Cadps	DRSC21057	62048	1.75e5		1221	7576	inactive
41	CG4456 + Hsp22	DRSC11187	34690	58333	57532	5517	4331	inactive
42	CG4456 + Hsp22	DRSC11192	1.59e5	83010		5971	3525	inactive
43	CG4770	DRSC15639	5.99e5	1.05e5		33148	2995	inactive
44	Snap24	DRSC16864	63432	1.28e5		1680	3905	inactive
45	Dek	DRSC07418	90080	64326		4055	3217	inactive
46	CG4783	DRSC15644	4.86e5	98160		4242	4242	inactive
47	comm3	DRSC09993	99818			7321	2954	inactive
48	comm3	DRSC09994	1.04e5			4584	3223	inactive
49	comm3	DRSC09995	1.08e5			6407	3511	inactive
50	CG13907	DRSC08377	1.13e5	1.14e5		4800	4571	inactive
51	cyr	DRSC18017	1.15e5	2.97e5		4226	9675	inactive
52	cyr	DRSC18018	86722	3.40e5		3403	11892	inactive
53	cyr	DRSC18021	84822	2.72e5		3063	9664	inactive
54	Cyp6g2	DRSC07387	78699	37168		2065	3156	inactive
55	flr	DRSC09787	1.15e5	71793		4432	2869	inactive
56	CG31269	DRSC15744	67739	89489		1250	2232	inactive
57	IFT46	DRSC02462	84085	59808		1778	5645	inactive
58	CG4789	DRSC19918	81005	1.78e5		2681	6953	inactive
59	fs(1)N	DRSC18578	84626	2.92e5		2502	10656	inactive
60	san	DRSC07695	89036	64812		2076	4515	inactive
61	CG7611	DRSC11840	1.51e5	1.64e5		4762	5693	inactive
62	Obp83g	DRSC12269	76248	1.00e5		3184	2992	inactive
63	CG18735	DRSC04312	79835	63396		2461	6672	inactive
64	Fkbp14	DRSC04615	1.93e5	97408		6934	3796	inactive
65	RpL35A	DRSC12302	27238	37985		2034	2380	active
66	a6	DRSC18733	1.16e5	90240		2881	3245	inactive
67	CG31454	DRSC14365	1.11e5	2.28e5		4573	6290	inactive
68	PAPLA1	DRSC03095	1.01e5	69604		5256	3072	inactive
69	PAPLA1	DRSC03096	63217	46662		2247	4360	inactive
70	CG3342	DRSC18304	91445	72288		2208	1688	inactive
71	CG3597	DRSC00617	95140	72872		2224	1986	inactive
72	CG42362 + CG42363	DRSC04265	1.39e5	62693		5618	2317	inactive
73	CG14480	DRSC06452	1.13e5	56994		3369	3946	inactive

Entries listed so far whose target name begins with A or a (2):
Gene	DRSC id	firefly Hh reporter signal, replicate 1	firefly Hh reporter signal, replicate 2	firefly Hh reporter signal, replicate 3	Renilla reference signal, replicate 1	Renilla reference signal, replicate 2	activity call
Adgf-A	DRSC10566	82848	56236		3437	2353	inactive
a6	DRSC18733	1.16e5	90240		2881	3245	inactive
